Measured values: publication PMC5471453 (Chemical Science, 2017)

Assay: peptide synthesis
Settings: conjugation step

In the case of DOX-FCPPs-PyTPE (TCNTP), the conjugation yield was 76%.
